PubChem BioAssay AID248 (DTP/NCI, 2004)
The list is a part of this screen's results and no random one: it covers a few groups of compounds. Other doses and runs of a compound may be missing. T/C is the treated group as % of the vehicle group. Some entries give survivors of the animals treated and no T/C: the source holds a T/C of zero for them, seemingly a mark for toxic or unscored doses. Some doses without a T/C left all or most animals alive at the check, yet need not have been tolerated: survival well below the control is almost never listed, so the zero probably covers shortened survival too. Counts of survivors are from the toxicity check (mostly the fifth day) where no day follows; animals may have died later. Schedule codes are those of the source, read here as Q, the interval in days (D) or hours (H), X, the number of doses. Some schedules carry Z or #; the key to these is not given. Where survival is the endpoint, the PubChem record calls one and a half times the control and up active, and a quarter to a half above the control has no call in these data; cut-offs in other NCI protocols can differ. Some entries hold several experiments; the results are listed from low to high. Some entries show no survivor count and are marked so; the dose need not have been tolerated. Some T/C values carry the count of animals alive at the toxicity check (mostly the fifth day); without a count or a note in brackets, all were alive then.

System: L1210 leukemia ip in BDF1 mice, survival T/C
Assay: NCI In Vivo Anticancer Drug Screen. Data for tumor model L1210 Leukemia (intraperitoneal) in B6D2F1 (BDF1) mice
Conditions: T/C endpoint: mean survival time, higher T/C = longer survival
[1] = dose: 100.0 mg/kg/injection, schedule: Q01DX009 (ip), vehicle: saline
[2] = dose: 100.0 mg/kg/injection, schedule: Q04DX003 (ip), vehicle: saline
[3] = dose: 200.0 mg/kg/injection, schedule: Q01DX009 (ip), vehicle: saline
[4] = dose: 200.0 mg/kg/injection, schedule: Q04DX003 (ip), vehicle: saline
[5] = dose: 400.0 mg/kg/injection, schedule: Q01DX009 (ip), vehicle: saline
[6] = dose: 400.0 mg/kg/injection, schedule: Q04DX003 (ip), vehicle: saline
[7] = dose: 100.0 mg/kg/injection, schedule: Q04DX002 (ip), vehicle: saline with Tween-80
[8] = dose: 100.0 mg/kg/injection, schedule: Q04DX003 (ip), vehicle: saline with Tween-80
[9] = dose: 200.0 mg/kg/injection, schedule: Q04DX002 (ip), vehicle: saline with Tween-80
[10] = dose: 400.0 mg/kg/injection, schedule: Q04DX002 (ip), vehicle: saline with Tween-80
[11] = dose: 100.0 mg/kg/injection, schedule: Q01DX009 (ip), vehicle: Klucel (hydroxypropylcellulose) (HPC)
[12] = dose: 200.0 mg/kg/injection, schedule: Q01DX009 (ip), vehicle: Klucel (hydroxypropylcellulose) (HPC)
[13] = dose: 100.0 mg/kg/injection, schedule: Q04DX003 (ip), vehicle: Klucel (hydroxypropylcellulose) (HPC)
[14] = dose: 200.0 mg/kg/injection, schedule: Q04DX003 (ip), vehicle: Klucel (hydroxypropylcellulose) (HPC)
[15] = dose: 400.0 mg/kg/injection, schedule: Q01DX009 (ip), vehicle: Klucel (hydroxypropylcellulose) (HPC)
[16] = dose: 400.0 mg/kg/injection, schedule: Q04DX003 (ip), vehicle: Klucel (hydroxypropylcellulose) (HPC)

SMILES: CC(O)CN(CCO)CC(C)O (configuration not stated)
- T/C [1]: 98 % of control
- T/C [2]: 91 % of control
- T/C [3]: 93 % of control
- T/C [4]: 96 % of control
- T/C [5]: 98 % of control
- T/C [6]: 96 % of control

SMILES: CN(CCCl)/N=N/c1nc[nH]c1C(N)=O
- T/C (dose: 4.4 mg/kg/injection, schedule: Q01DX009 (ip), vehicle: saline with Tween-80): 104 % of control
- T/C (dose: 6.6 mg/kg/injection, schedule: Q01DX009 (ip), vehicle: saline with Tween-80): 113 % of control
- T/C (dose: 10.0 mg/kg/injection, schedule: Q01DX009 (ip), vehicle: saline with Tween-80): 119 % of control
- T/C (dose: 12.5 mg/kg/injection, schedule: Q04DX002 (ip), vehicle: saline with Tween-80): 103 % of control
- T/C (dose: 15.0 mg/kg/injection, schedule: Q01DX009 (ip), vehicle: saline with Tween-80): 136 % of control
- T/C (dose: 22.5 mg/kg/injection, schedule: Q01DX009 (ip), vehicle: saline with Tween-80): 148 % of control
- T/C (dose: 25.0 mg/kg/injection, schedule: Q04DX002 (ip), vehicle: saline with Tween-80): 114 % of control
- T/C (dose: 44.0 mg/kg/injection, schedule: Q01DX001 (ip), vehicle: saline with Tween-80): 106 % of control
- T/C (dose: 44.0 mg/kg/injection, schedule: Q04DX003 (ip), vehicle: saline with Tween-80): 142 % of control
- T/C (dose: 50.0 mg/kg/injection, schedule: Q04DX002 (ip), vehicle: saline with Tween-80): 133 % of control
- T/C (dose: 66.0 mg/kg/injection, schedule: Q01DX001 (ip), vehicle: saline with Tween-80): 114 % of control
- T/C (dose: 66.0 mg/kg/injection, schedule: Q04DX003 (ip), vehicle: saline with Tween-80): 168 % of control
- T/C (dose: 100.0 mg/kg/injection, schedule: Q01DX001 (ip), vehicle: saline with Tween-80): 128 % of control
- T/C [7]: 188 % of control
- T/C [8]: 227 % of control
- T/C (dose: 150.0 mg/kg/injection, schedule: Q01DX001 (ip), vehicle: saline with Tween-80): 159 % of control
- T/C (dose: 150.0 mg/kg/injection, schedule: Q04DX003 (ip), vehicle: saline with Tween-80): 209 % of control
- T/C [9]: 89 % of control
- T/C (dose: 225.0 mg/kg/injection, schedule: Q01DX001 (ip), vehicle: saline with Tween-80): 164 % of control
- survivor count (dose: 225.0 mg/kg/injection, schedule: Q04DX003 (ip), vehicle: saline with Tween-80): 10 of 10
- survivor count [10]: 3 of 3

SMILES: O=C1C(C(Cl)(Cl)Cl)OC(C(Cl)(Cl)Cl)N1C(O)C(Cl)(Cl)Cl (configuration not stated)
- T/C (dose: 100.0 mg/kg/injection, schedule: Q01DX001 (ip), vehicle: saline): 94 % of control
- T/C [1]: 97 and 99 % of control
- T/C (dose: 100.0 mg/kg/injection, schedule: Q04DX002 (ip), vehicle: saline): 100 % of control
- T/C [2]: 97 % of control
- T/C (dose: 200.0 mg/kg/injection, schedule: Q01DX001 (ip), vehicle: saline): 97 % of control
- T/C [3]: 97 and 99 % of control
- T/C (dose: 200.0 mg/kg/injection, schedule: Q04DX002 (ip), vehicle: saline): 92 % of control
- T/C [4]: 93 % of control
- T/C (dose: 400.0 mg/kg/injection, schedule: Q01DX001 (ip), vehicle: saline): 105 % of control
- T/C [5]: 89 and 108 % of control
- T/C (dose: 400.0 mg/kg/injection, schedule: Q04DX002 (ip), vehicle: saline): 103 % of control
- T/C [6]: 92 % of control

SMILES: CCOP(=O)(NC1CCCCC1)OCC
- T/C (dose: 50.0 mg/kg/injection, schedule: Q01DX009 (ip), vehicle: Klucel (hydroxypropylcellulose) (HPC)): 94 % of control
- T/C [11]: 87 % of control
- T/C [8]: 95 % of control
- T/C [12]: 97 % of control
- T/C (dose: 200.0 mg/kg/injection, schedule: Q04DX003 (ip), vehicle: saline with Tween-80): 98 % of control
- survivor count (dose: 400.0 mg/kg/injection, schedule: Q04DX003 (ip), vehicle: saline with Tween-80): 2 of 6

SMILES: CN(C)Nc1c([N+](=O)[O-])cc([N+](=O)[O-])cc1[N+](=O)[O-]
- T/C [11]: 103 % of control [survivor count not shown]
- T/C [13]: 93 % of control [survivor count not shown]
- T/C [12]: 96 % of control [survivor count not shown]
- T/C [14]: 98 % of control [survivor count not shown]
- T/C [15]: 94 % of control [survivor count not shown]
- T/C [16]: 96 % of control [survivor count not shown]

SMILES: CCCCSP1(SCCCC)=NP(Cl)(Cl)=NP(Cl)(Cl)=N1
- T/C [7]: 97 % of control
- T/C [9]: 93 % of control
- T/C [10]: 107 % of control

SMILES: CCOP(OCC)c1cccs1
- T/C [7]: 100 % of control
- T/C [9]: 100 % of control
- T/C [10]: 103 % of control

SMILES: N#Cc1cc([N+](=O)[O-])cc([N+](=O)[O-])c1N
- T/C (dose: 10.0 mg/kg/injection, schedule: Q01DX001 (ip), vehicle: carboxymethylcellulose (CMC)): 97 % of control
- T/C (dose: 20.0 mg/kg/injection, schedule: Q01DX001 (ip), vehicle: carboxymethylcellulose (CMC)): 97 % of control
- survivor count (dose: 40.0 mg/kg/injection, schedule: Q01DX001 (ip), vehicle: carboxymethylcellulose (CMC)): 0 of 4
- survivor count (dose: 80.0 mg/kg/injection, schedule: Q01DX001 (ip), vehicle: carboxymethylcellulose (CMC)): 0 of 4
- survivor count (dose: 100.0 mg/kg/injection, schedule: Q01DX001 (ip), vehicle: carboxymethylcellulose (CMC)): 0 of 4
- survivor count (dose: 200.0 mg/kg/injection, schedule: Q01DX001 (ip), vehicle: carboxymethylcellulose (CMC)): 0 of 4
- survivor count (dose: 400.0 mg/kg/injection, schedule: Q01DX001 (ip), vehicle: carboxymethylcellulose (CMC)): 0 of 4

SMILES: CCOP(=O)(O)N(CCCl)CCCl.NC1CCCCC1
- T/C (dose: 62.5 mg/kg/injection, schedule: Q01DX010 (ip), vehicle: saline): 103 % of control
- T/C (dose: 125.0 mg/kg/injection, schedule: Q01DX010 (ip), vehicle: saline): 111 % of control
- T/C (dose: 250.0 mg/kg/injection, schedule: Q01DX010 (ip), vehicle: saline): 117 % of control
- T/C (dose: 250.0 mg/kg/injection, schedule: Q01DX Z (ip), vehicle: saline): 137 % of control
- T/C (dose: 500.0 mg/kg/injection, schedule: Q01DX Z (ip), vehicle: saline): 137 % of control
- survivor count (dose: 750.0 mg/kg/injection, schedule: Q01DX Z (ip), vehicle: saline): 3 of 6

SMILES: O=[N+]([O-])c1ccc(NCCCl)c([N+](=O)[O-])c1
- T/C (dose: 100.0 mg/kg/injection, schedule: Q04DX002 (ip), vehicle: Klucel (hydroxypropylcellulose) (HPC)): 100 % of control
- T/C (dose: 200.0 mg/kg/injection, schedule: Q04DX002 (ip), vehicle: Klucel (hydroxypropylcellulose) (HPC)): 95 % of control
- T/C (dose: 400.0 mg/kg/injection, schedule: Q04DX002 (ip), vehicle: Klucel (hydroxypropylcellulose) (HPC)): 109 % of control [2 of 3 alive]

SMILES: O=CCc1ccc(N(CCCl)CCCl)cc1
- T/C [11]: 106 % of control [5 of 6 alive]
- T/C [13]: 101 % of control
- T/C [12]: 135 % of control
- T/C [14]: 102 % of control
- T/C [15]: 87 % of control
- T/C [16]: 109 % of control

SMILES: CC1C[P+](c2ccccc2)(c2ccccc2)Cc2ccccc21.F[P-](F)(F)(F)(F)F (configuration not stated)
- survivor count (dose: 25.0 mg/kg/injection, schedule: Q04DX003 (ip), vehicle: saline with Tween-80): 3 of 3
- survivor count (dose: 50.0 mg/kg/injection, schedule: Q04DX003 (ip), vehicle: saline with Tween-80): 0 of 3
- survivor count [8]: 0 of 3
